Results are given in words; binding and its absence hold for the method and conditions named. In cells and extracts the contact can be indirect. Some results given as binding are weak or reduced against the parent protein; the word gives no strength.
Experiments:
[1] = target: FBW7 (endogenous, HEK293; precipitated or detected with an FBW7α-specific antibody) (human (endogenous in HEK293)) (UniProt Q969H0); assay: co-IP; immunoprecipitation of endogenous FBW7 from HEK293 cells, Western blot for endogenous USP9X; siFBW7 as negative control
Flag-tagged FBW7α = Flag-tagged FBW7α (UniProt Q969H0); assay: co-IP; Flag-tagged FBW7α, -β or -γ overexpressed in HEK293 cells; interaction with endogenous USP9X
Flag-tagged FBW7β = Flag-tagged FBW7β (UniProt Q969H0); assay: as above
Flag-tagged FBW7γ = Flag-tagged FBW7γ (UniProt Q969H0); assay: as above

Chains of the proteins cited; added tags and fusions are not shown. Lines headed by an entry give the natural chain unless they say otherwise; changes in a name come on top. A line that says so, or that is headed by a name, gives the form on record, which may keep a tag or linker.
UniProt Q969H0: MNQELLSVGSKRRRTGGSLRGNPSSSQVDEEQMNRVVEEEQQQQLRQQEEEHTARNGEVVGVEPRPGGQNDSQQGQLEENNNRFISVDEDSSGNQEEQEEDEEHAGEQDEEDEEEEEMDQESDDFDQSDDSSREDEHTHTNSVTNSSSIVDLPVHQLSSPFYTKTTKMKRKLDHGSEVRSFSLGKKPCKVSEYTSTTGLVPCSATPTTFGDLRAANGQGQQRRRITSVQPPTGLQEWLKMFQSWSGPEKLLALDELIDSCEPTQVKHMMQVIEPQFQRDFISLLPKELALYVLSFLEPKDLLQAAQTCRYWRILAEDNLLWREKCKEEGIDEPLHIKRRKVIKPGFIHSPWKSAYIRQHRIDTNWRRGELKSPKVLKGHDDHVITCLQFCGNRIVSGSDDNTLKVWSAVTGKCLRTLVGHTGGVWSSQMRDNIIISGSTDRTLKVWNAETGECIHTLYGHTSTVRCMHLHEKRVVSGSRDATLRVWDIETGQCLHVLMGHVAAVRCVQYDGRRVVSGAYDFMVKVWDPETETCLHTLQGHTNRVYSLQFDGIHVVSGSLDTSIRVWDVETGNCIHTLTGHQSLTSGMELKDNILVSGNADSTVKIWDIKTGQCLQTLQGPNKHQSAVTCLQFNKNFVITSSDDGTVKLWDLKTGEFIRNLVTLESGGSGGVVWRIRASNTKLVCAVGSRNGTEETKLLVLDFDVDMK
Flag-tagged FBW7β (Q969H0, form named): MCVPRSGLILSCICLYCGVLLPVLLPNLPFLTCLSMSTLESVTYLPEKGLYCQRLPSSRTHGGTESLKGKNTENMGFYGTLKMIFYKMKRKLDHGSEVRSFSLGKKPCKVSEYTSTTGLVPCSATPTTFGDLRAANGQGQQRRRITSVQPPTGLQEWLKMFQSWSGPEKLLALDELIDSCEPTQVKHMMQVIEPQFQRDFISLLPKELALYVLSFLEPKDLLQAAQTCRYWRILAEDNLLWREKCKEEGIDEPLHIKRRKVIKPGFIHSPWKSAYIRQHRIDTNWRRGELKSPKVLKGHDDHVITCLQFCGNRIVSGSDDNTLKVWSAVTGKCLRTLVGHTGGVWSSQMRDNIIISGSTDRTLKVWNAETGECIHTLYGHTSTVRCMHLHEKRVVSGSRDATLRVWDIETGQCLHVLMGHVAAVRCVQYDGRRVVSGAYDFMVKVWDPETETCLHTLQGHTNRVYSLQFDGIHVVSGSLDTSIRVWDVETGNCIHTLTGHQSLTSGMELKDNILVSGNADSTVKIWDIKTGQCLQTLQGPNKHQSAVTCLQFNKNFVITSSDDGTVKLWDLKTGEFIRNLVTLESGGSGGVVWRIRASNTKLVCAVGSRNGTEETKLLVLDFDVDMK
Flag-tagged FBW7γ (Q969H0, form named): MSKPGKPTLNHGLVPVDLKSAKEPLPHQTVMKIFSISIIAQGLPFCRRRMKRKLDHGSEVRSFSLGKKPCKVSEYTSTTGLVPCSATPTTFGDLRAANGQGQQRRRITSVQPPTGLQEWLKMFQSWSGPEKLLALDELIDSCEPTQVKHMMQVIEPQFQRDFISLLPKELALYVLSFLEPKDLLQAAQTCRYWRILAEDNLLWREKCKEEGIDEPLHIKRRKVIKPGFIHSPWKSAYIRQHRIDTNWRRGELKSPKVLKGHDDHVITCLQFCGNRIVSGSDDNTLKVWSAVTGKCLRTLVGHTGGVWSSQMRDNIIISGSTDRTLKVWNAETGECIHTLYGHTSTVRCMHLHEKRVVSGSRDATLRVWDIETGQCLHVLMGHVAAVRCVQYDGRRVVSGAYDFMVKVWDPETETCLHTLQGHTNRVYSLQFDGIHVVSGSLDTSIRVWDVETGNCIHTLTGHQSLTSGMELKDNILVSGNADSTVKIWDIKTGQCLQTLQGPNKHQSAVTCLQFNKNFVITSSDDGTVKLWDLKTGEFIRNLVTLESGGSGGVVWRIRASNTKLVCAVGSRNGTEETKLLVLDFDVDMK
UniProt Q93008: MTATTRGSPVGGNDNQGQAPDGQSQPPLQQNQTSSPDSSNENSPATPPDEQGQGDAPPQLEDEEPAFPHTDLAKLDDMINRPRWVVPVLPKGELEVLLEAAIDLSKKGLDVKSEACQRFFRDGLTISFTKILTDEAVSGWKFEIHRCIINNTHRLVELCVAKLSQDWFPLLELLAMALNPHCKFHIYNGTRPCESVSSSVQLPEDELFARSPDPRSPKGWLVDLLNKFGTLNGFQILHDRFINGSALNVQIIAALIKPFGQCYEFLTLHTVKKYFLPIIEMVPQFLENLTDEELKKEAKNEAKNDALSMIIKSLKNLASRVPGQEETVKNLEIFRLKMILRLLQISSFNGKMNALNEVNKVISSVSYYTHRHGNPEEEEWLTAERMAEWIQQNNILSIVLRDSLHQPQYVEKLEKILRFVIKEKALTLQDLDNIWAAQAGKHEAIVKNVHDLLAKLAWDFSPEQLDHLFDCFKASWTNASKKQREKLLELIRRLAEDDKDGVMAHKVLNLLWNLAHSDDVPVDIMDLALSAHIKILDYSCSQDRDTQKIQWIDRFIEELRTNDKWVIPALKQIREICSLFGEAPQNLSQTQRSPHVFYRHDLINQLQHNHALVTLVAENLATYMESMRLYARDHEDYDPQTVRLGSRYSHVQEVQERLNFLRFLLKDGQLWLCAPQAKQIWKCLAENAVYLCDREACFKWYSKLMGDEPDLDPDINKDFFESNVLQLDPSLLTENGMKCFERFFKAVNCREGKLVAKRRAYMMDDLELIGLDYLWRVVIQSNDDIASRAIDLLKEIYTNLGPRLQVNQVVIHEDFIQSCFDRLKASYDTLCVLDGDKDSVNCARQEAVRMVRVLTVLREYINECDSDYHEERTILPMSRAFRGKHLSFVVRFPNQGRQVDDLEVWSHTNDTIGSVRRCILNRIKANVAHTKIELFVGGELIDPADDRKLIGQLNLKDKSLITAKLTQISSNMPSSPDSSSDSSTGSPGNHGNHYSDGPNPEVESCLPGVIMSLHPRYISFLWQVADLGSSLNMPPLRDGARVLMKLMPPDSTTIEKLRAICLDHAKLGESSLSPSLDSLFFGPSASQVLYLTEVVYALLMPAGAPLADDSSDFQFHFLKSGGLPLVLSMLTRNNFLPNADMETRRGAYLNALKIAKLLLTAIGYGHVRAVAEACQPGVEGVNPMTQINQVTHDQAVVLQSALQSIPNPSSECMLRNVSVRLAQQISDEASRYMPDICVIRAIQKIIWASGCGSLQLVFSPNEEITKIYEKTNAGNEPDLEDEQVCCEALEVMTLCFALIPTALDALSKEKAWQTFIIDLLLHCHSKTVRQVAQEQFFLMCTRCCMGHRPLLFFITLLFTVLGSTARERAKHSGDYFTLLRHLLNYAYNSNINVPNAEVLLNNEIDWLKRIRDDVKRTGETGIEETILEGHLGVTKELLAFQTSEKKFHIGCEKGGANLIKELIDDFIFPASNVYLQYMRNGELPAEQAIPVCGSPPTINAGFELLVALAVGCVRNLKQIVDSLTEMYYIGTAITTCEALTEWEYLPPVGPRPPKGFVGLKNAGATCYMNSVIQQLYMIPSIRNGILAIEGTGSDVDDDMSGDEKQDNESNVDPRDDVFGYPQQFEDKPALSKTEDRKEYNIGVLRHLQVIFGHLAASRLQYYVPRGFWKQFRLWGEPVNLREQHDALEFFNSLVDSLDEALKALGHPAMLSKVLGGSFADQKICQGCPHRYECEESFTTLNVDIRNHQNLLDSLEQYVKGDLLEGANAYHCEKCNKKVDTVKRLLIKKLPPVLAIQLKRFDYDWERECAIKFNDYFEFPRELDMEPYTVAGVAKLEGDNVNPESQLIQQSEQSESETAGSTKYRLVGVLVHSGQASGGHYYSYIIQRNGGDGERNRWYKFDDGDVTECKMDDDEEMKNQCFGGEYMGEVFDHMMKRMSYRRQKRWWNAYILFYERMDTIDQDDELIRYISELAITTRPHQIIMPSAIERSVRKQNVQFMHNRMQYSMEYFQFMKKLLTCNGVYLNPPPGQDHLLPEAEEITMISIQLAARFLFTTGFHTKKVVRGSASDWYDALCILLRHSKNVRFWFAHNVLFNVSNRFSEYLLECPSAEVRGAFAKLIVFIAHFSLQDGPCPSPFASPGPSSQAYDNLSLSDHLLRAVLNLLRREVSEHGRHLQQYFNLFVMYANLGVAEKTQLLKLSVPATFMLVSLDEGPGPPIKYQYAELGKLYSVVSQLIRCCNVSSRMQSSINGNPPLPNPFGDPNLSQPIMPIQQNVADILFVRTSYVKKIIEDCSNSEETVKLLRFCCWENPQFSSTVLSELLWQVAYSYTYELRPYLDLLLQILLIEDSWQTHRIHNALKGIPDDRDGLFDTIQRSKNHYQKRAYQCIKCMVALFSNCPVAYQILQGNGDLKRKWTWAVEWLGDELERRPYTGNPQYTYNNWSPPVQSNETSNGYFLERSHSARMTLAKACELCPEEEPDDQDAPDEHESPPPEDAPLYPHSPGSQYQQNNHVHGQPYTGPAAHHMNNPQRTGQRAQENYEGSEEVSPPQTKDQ

- binding [1]: binds
- binding (Flag-tagged FBW7α): binds
- binding (Flag-tagged FBW7β): binds
- binding (Flag-tagged FBW7γ): no binding
Substance: USP9X (endogenous, HEK293) (from UniProt Q93008 1-2554) (enzyme)

From paper PMC5873885
